Source: article PMC9676655

Amino acid sequences for entries named in this document (tags omitted).
UniProt Q6MG49: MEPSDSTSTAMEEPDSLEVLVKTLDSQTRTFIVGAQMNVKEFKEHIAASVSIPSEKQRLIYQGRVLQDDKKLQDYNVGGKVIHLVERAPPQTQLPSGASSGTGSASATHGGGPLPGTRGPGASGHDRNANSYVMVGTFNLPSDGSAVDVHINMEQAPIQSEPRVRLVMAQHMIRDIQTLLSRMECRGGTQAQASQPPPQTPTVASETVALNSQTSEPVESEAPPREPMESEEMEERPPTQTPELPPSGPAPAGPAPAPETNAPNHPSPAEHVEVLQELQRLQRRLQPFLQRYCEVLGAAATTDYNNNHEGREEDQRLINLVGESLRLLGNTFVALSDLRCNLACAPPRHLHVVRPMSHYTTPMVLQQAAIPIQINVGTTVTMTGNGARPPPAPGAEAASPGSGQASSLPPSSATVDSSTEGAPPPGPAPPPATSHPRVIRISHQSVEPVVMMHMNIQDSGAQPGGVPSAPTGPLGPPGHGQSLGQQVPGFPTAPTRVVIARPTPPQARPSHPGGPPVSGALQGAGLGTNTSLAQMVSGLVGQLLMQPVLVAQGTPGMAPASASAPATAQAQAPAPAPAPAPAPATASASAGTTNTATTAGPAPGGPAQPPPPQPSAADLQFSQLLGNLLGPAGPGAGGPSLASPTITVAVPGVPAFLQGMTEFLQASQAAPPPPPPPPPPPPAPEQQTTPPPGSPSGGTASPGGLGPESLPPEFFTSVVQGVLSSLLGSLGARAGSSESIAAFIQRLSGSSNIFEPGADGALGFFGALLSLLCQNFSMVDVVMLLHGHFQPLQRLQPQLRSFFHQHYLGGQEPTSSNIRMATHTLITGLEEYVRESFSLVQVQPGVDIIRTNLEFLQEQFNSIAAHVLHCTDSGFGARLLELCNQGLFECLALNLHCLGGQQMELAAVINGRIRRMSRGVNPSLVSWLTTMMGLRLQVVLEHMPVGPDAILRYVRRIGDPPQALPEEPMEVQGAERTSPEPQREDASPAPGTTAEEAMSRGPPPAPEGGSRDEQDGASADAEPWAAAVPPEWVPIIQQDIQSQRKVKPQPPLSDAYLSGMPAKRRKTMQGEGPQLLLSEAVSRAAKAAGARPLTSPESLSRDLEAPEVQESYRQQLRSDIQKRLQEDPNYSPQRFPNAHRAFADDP
UniProt O08629: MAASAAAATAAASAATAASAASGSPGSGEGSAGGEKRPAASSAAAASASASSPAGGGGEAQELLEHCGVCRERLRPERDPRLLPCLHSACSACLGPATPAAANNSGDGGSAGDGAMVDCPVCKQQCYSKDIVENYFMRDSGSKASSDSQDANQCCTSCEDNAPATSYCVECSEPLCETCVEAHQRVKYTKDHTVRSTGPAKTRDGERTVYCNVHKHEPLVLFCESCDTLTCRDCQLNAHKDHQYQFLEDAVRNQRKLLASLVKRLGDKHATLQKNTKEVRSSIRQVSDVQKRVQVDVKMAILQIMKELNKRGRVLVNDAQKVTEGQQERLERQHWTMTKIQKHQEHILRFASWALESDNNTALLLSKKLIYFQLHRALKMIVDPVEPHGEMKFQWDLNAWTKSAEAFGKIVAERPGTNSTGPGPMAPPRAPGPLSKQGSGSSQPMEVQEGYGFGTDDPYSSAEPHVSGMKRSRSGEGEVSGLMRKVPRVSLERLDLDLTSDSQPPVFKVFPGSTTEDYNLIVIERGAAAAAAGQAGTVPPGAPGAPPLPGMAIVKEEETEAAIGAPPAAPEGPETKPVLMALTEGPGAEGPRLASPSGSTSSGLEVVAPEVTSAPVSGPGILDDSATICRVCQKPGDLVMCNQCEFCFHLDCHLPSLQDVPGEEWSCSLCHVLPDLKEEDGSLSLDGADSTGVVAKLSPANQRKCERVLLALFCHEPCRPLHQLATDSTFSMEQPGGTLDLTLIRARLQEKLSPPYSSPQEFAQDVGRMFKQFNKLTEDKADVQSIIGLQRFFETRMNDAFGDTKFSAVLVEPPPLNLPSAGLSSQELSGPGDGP
UniProt Q8R560: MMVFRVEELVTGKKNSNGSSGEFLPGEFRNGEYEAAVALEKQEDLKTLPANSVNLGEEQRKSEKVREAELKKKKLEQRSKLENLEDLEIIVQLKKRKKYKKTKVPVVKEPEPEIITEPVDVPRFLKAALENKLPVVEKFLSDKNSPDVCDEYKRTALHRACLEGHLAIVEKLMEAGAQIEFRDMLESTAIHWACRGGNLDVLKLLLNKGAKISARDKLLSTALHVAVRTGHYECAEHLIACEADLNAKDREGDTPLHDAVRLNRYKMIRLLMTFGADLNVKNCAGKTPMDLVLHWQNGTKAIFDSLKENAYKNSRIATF
UniProt O70511: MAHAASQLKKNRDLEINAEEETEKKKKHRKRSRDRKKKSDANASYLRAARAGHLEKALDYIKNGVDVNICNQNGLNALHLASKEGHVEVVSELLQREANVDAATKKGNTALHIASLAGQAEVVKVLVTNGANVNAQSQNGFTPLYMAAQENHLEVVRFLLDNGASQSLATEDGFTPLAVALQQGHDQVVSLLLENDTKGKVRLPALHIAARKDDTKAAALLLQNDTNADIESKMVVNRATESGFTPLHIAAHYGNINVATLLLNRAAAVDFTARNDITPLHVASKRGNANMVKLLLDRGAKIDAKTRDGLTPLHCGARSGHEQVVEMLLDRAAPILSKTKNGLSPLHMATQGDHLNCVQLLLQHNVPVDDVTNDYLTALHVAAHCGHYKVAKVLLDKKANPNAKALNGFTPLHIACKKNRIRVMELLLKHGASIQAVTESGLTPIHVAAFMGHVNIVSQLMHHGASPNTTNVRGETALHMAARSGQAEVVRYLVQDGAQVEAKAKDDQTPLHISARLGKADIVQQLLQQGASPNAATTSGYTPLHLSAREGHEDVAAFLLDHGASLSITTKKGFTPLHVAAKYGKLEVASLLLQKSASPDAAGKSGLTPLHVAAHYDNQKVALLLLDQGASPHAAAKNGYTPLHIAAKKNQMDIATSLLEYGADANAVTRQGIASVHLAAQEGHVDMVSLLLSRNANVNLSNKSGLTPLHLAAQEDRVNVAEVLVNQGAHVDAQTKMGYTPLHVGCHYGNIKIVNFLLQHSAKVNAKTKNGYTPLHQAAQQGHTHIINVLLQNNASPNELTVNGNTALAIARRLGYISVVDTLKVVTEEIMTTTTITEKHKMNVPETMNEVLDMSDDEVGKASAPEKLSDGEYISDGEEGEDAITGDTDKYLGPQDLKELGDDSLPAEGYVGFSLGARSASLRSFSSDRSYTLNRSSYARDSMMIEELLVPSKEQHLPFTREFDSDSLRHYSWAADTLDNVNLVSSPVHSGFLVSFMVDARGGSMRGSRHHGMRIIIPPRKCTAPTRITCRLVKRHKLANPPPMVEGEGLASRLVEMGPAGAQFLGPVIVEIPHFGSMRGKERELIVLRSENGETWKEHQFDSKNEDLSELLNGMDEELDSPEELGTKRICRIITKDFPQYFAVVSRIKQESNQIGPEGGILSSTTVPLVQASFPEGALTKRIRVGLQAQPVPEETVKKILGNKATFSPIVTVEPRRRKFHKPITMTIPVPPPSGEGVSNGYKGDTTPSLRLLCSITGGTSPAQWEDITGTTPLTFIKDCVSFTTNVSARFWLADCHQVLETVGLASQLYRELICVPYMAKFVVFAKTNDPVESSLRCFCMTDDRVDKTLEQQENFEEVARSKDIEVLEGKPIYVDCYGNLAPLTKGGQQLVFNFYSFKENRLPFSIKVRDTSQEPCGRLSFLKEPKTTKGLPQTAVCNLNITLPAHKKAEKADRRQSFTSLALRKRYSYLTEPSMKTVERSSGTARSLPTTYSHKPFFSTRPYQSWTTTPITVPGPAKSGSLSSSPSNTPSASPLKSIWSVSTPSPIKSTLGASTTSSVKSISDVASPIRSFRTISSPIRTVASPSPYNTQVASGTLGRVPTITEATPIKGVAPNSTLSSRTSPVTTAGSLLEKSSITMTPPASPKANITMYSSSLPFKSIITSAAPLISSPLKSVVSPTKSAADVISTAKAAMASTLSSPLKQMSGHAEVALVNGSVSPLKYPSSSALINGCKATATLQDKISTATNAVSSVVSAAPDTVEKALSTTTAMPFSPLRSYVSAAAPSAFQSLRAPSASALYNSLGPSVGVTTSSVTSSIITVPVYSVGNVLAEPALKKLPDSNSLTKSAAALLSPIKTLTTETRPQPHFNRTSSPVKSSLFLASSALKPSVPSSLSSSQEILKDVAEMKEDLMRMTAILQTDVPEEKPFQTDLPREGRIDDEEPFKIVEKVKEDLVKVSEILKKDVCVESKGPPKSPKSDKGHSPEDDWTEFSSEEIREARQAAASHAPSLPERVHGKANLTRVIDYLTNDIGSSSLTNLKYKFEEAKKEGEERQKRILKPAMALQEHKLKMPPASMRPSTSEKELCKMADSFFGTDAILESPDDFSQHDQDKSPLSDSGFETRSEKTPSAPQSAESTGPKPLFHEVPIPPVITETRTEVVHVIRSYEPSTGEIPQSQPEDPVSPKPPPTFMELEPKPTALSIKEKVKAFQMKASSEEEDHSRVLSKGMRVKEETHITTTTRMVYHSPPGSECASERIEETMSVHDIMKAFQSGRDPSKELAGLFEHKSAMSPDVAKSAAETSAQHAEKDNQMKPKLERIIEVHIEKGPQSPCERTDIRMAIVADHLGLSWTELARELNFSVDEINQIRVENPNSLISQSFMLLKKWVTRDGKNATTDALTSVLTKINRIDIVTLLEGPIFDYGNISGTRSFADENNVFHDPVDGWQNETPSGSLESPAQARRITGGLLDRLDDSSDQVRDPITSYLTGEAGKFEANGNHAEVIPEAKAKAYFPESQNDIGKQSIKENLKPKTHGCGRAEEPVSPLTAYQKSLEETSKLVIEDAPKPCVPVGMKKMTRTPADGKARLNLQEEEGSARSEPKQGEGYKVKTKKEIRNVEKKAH

T1: C-terminal Flag tagged PERM1 (PERM1-Flag) (UniProt Q149B8)
T1 sequence: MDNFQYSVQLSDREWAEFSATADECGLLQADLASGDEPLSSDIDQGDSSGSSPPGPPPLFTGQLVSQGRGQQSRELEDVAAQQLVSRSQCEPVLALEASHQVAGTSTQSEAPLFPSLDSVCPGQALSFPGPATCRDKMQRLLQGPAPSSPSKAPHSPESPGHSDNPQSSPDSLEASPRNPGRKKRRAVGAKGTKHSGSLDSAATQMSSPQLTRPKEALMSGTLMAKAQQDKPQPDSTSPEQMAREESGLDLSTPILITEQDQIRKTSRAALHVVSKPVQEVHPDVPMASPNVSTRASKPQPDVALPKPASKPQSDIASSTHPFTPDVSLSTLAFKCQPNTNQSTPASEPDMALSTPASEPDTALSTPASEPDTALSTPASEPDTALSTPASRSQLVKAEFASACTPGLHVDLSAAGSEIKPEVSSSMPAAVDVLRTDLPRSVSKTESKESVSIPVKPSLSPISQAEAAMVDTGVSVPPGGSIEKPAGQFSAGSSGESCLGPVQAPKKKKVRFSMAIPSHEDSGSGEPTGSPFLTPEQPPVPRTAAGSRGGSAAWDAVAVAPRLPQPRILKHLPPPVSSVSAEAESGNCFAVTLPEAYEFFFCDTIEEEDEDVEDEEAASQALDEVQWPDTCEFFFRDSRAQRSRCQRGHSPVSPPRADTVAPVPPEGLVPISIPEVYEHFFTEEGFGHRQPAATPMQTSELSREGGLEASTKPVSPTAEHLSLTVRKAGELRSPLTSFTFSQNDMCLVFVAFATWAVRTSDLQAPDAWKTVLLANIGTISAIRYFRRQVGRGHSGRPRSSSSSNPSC

B1: SAMM50 (protein, UniProt Q6AXV4 1-469)
chain: MGTVHARSLEPLPSSGTDFGALGEEAEFVEVEPEAKQEILENKDVVVQHVHFDGLERTKDDIIICEIGEVFKAKNLIEVMRRSHEAREKLLRLGIFRQVDVLIDTCHGEDALPNGLDVTFEVTELRRLTGSYNTMVGNNEGSMVLGLKLPNLLGRAEKVTFQFSYGTKETSYGLSFFKPQPGNFEKNFSVNLYKVTGQFPWSSLRETDRGVSAEYSFPLCKTSHTVKWEGVWRELGCLARTASFAVRKESGHSLKSSLSHAMVIDSRNSSILPRRGALLKVNQELAGYTGGDVSFIKEDFELQLNKPLVLDSVFSTSLWGGMLVPIGDKLSSIADRFYLGGPTSVRGFSMHSIGPQSEGDYLGGEAYWAGGLHLYTPLPFRPGQGGFGELFRTHFFLNAGNLCNLNYGEGPRAHIRKLAECIRWSYGAGIVLRLGNIARLELNYCIPMGVQRGDRICDGVQFGAGIRFL
B2: KANK2 (KN motif and ankyrin repeat domains 2) (protein, UniProt D3ZD05 1-847)
chain: MAQVLHVPAPFPGTPGQASSAAFPNKEPDPPYSVETPYGYRLDLDFLKYVDDIEKGHTLRRVPVQRRPRLGSLPRGPGSWWTSTESLCSDASGDSRHSAYSYCGRGFYPQYGALETRSGTNPRVERTLLDARRRLEDQAAAPSSGGLGSLTPSAAGSTSSLAGVGLLPPTPRSSGLSTPVAPSAGHLAHVREQMAGALRKLRQLEEQVKLIPVLQVKLSVLQEEKRQLTVQLKSQKFLGHPSGTRSRSELCLDLPEAPDDPAVLETRSVGTWVRERDLGIPDGEAALVAKVAVLETQLKKALQELRAAQTQQVDLQPQAWPPPDTQVRVDTVRVVEGPREVEVAASTAAGAPAQRAQSLEPYGAGLKALATSAENTLVFRSHEVVETMCPLPTASTSNMHTAKKISITERNCTGAARMADPPPSPAEPSPSSPYPAAEPENPAPAAQDTTDRELTRPVASQDSQAAEGAGGASLGVQSALKRKEVPADPDVHQRNLQFVGINGGYESSSEDSSTAENSEHESTENEAPEPPVRVLSTAEGPQLRPLGPAVGKTSQDERQLSQESQRVPEAKVAPGPDPEEEIRMDLSPDLISACLALEKYLENPNALTERELKVAYTTVLQEWLRLACRSDAHPELVRRHLVTFRAMSARLLDYVVNIADSNGNTALHYSVSHANFPVVRQLLDSGVCQVDKLNRAGYSPIMLTALATLKTQDDIDTILQLFRLGNVNAKASQAGQTALMLAVSHGRVDVVKALLACEVDVNMQDEDGSTALMCACEHGHKEITGLLLAVPSCDISLTDRDGSTALMVALDAGQSEIASMLYSRMNIKCSFAPMSDYESPASSSAEE

What follows are molecules tested against T1, C-terminal Flag tagged PERM1 (PERM1-Flag) (assay: affinity purification with mass spectrometry; Perm1-Flag expressed in primary cultured cardiomyocytes by adenovirus vector; whole lysate immunoprecipitated with anti-Flag antibody; SDS-PAGE, LC-MS/MS).
In the case of “BLC2-associated anthanogene-6 (BAG6) (from UniProt Q6MG49 1-1146)”, the binding is reported as “binds”. In the case of ANKYRIN2, the binding is reported as “binds”. In the case of “transcriptional intermediary factor 1β (TIF1β) (from UniProt O08629 1-835)”, the binding is reported as “binds”. With “ankyrin repeat domain 1 (ANKRD1) (from UniProt Q8R560 1-319)” the binding was “binds”. ANKYRIN3 (from UniProt O70511 1-2622) was tested, and the binding was “binds”.

Molecular target: T1, C-terminal Flag tagged PERM1 (PERM1-Flag)
Experiment: as above
Remark: another data set of the same source
With B1 the binding was “binds”. B2 was tested, and the binding was “binds”.

No constants are given. Whether binding was seen depends on the method and setting. In cells and extracts the contact can be indirect. These calls come from enrichment with a bait or labelling near it, and not all partners need be listed. Where a sequence is shown, tags or fusion partners need not be part of it.
